We go through three sequences from article PMC11633057, “Targeting MarA N‐terminal domain dynamics to prevent DNA binding”.

Holding throughout (assay): EMSA
Series [1] deals with T1, MarA I13C/M47C, His-tag cleaved I11C,M45C (Escherichia coli MG1655) (UniProt P0ACH5).
T1 sequence (looked up, limits assumed): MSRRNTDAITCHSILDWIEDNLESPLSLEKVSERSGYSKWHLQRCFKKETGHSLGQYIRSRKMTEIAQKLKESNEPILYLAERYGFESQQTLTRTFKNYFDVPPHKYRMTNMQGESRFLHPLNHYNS
The conditions noted are these: pattern similar to His-tagged; EMSA: 20 mM Hepes pH 8, 100 mM MgCl2, 100 mM EDTA, 0.3 mg/mL BSA, +/- DTT, 0.8 uM MarA, DNA 15 nM (200 bp) or 200 nM (30 bp), 20 min 37 C, 8% native gel, SYBR green; recombinant protein.

Series [2] has as its target T2, MarA I16C/M47C, His-tag cleaved I14C,M45C (Escherichia coli MG1655) (UniProt P0ACH5).
T2 sequence (looked up, limits assumed): T1 sequence (looked up, limits assumed) with C11I, I14C
The conditions noted are these: pattern similar to His-tagged, EMSA: 20 mM Hepes pH 8, 100 mM MgCl2, 100 mM EDTA, 0.3 mg/mL BSA, 0.8 uM MarA, DNA 15 nM (200 bp) or 200 nM (30 bp), 20 min 37 C, 8% native gel, SYBR green, recombinant protein. (In general: A gel shift assay detects complexes by their altered migration in electrophoresis.)

The target in series [3] is T3, MarA WT, His-tag cleaved (Escherichia coli MG1655) (UniProt P0ACH5).
T3 sequence (looked up, limits assumed): T1 sequence (looked up, limits assumed) with C11I, C45M
The following applies: pattern similar to His-tagged; EMSA: 20 mM Hepes pH 8, 100 mM MgCl2, 100 mM EDTA, 0.3 mg/mL BSA, +/- DTT, 0.8 uM MarA, DNA 15 nM (200 bp) or 200 nM (30 bp), 20 min 37 C, 8% native gel, SYBR green; recombinant protein.

Series [4] concerns the target T4, MarA I13C/M47C I11C,M45C (Escherichia coli MG1655) (UniProt P0ACH5).
T4 sequence (looked up, limits assumed): T1 sequence (looked up, limits assumed)
The following applies: no DTT (disulfide), EMSA: 20 mM Hepes pH 8, 100 mM MgCl2, 100 mM EDTA, 0.3 mg/mL BSA, 0.8 uM MarA, DNA 15 nM (200 bp) or 200 nM (30 bp), 20 min 37 C, 8% native gel, SYBR green, recombinant protein, protein details: N-terminal 6xHis (pET-15b), probe letters rebuilt from the primers and the genome.

Series [5] has as its target T5, MarA S62C/L121C S60C,L119C (Escherichia coli MG1655) (UniProt P0ACH5).
T5 sequence (looked up, limits assumed): T1 sequence (looked up, limits assumed) with C11I, C45M, S60C, L119C
The conditions noted are these: no DTT (disulfide), EMSA: 20 mM Hepes pH 8, 100 mM MgCl2, 100 mM EDTA, 0.3 mg/mL BSA, 0.8 uM MarA, DNA 15 nM (200 bp) or 200 nM (30 bp), 20 min 37 C, 8% native gel, SYBR green, recombinant protein, protein details: N-terminal 6xHis (pET-15b), probe letters rebuilt from the primers and the genome.

Series [6] addresses T6, MarA I16C/M47C I14C,M45C (Escherichia coli MG1655) (UniProt P0ACH5).
T6 sequence (looked up, limits assumed): T1 sequence (looked up, limits assumed) with C11I, I14C
The following applies: no DTT (disulfide), EMSA: 20 mM Hepes pH 8, 100 mM MgCl2, 100 mM EDTA, 0.3 mg/mL BSA, 0.8 uM MarA, DNA 15 nM (200 bp) or 200 nM (30 bp), 20 min 37 C, 8% native gel, SYBR green, recombinant protein, protein details: N-terminal 6xHis (pET-15b).

Numbering of substitutions follows the chain as printed. For at least one entry, the source does not settle the construct or the ends of the probe. For some assays here: A negative result means that nothing was seen under these conditions. For some assays here: At least one verdict was read from the data and is not stated in words by the source. Where a protein sequence is shown, tags need not be part of it.

Take “CTTCTTGTTTGGTTTTTCGTGCCATATGTTC (double strand) [acrAB short marbox (called 30-bp)]”: the binding result in series [1] is listed as “binds”; in series [2] (no DTT), “no binding”; in series [2] (with DTT), “binds”; in series [3], “binds”.

Take “GTTATCCTGTGTATCTGGGTTATCAGCGAAAAGTATAAGGGGTAAACAAGGATAAAGTGTCACTCTTTAGCTAGCCTTGCATCGCATTGAACAAAACTTGAACCGATTTAGCAAAACGTGGCATCGGTCAATTCATTCATTTGACTTATACTTGCCTGGGCAATATTATCCCCTGCAACTAATTACTTGCCAGGGCAAC (double strand) [marRAB 200-bp fragment]”: the binding result in series [4] and in series [5] was “binds” each time.

As for “GAACCGATTTAGCAAAACGTGGCATCGGTC (double strand) [marRAB 30-bp marbox]”, the binding result was “binds” in series [1]; “no binding” in series [2] (no DTT); “binds” in series [2] (with DTT); “no binding” in series [6]; “binds” in series [3].
